Values from PubChem BioAssay AID504808 (Drosophila RNAi Screening Center, 2011)

- Assay: 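Chromatin factors that keep E2F targets switched off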 (primary screen)
- Cells: Drosophila S2 cells
- Knock-down reagent: long dsRNA against Drosophila genes
- Measured: 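Dual luciferase plate measurements; E2F-specific signal taken as firefly over Renilla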
- Reading the numbers: E2F firefly: higher = more E2F reporter activity; Renilla normaliser: higher = more normaliser reporter signal
- Hit rule: 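a knock-down counted as active when the firefly/Renilla E2F signal rose above 50%, a threshold chosen arbitrarily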
In all, the deposit lists about 21,000 reagents; below is an unselected part of those that have a named target and a result. In the full data, 18 (0.084%) were called active. 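Raw counts without plate normalisation, one of two replicates; the ratio scores behind the calls were not deposited.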 Names joined by + are all predicted targets of the reagent. Reagent sequences are not shown. Not given: the amount of reagent, the time to read-out.

Gene | amplicon | E2F firefly, rep 1 | Renilla normaliser, rep 1 | activity call
Est-P (GeneID 39393) | DRSC11163 | 1.40e5 | 7358 | inactive
CG5909 (GeneID 43274) | DRSC15914 | 1.16e5 | 5891 | inactive
CG18787 + CG18789 | DRSC02698 | 1.01e5 | 4014 | inactive
CG14402 (GeneID 35352) | DRSC02386 | 96734 | 3940 | inactive
Nipsnap (GeneID 32573) | DRSC20169 | 7718 | 856 | inactive
HisCl1 (GeneID 41426) | DRSC14945 | 61753 | 3322 | inactive
CG1764 (GeneID 32281) | DRSC19779 | 8187 | 724 | inactive
klg (GeneID 42707) | DRSC13591 | 65559 | 2481 | inactive
klg (GeneID 42707) | DRSC16978 | 99002 | 6413 | inactive
CG7794 (GeneID 42159) | DRSC16313 | 1.41e5 | 6556 | inactive
pnt (GeneID 42757) | DRSC17028 | 59546 | 4743 | inactive
mRpS18C (GeneID 43609) | DRSC16538 | 1.28e5 | 6274 | inactive
RpS14b (GeneID 47219) | DRSC18711 | 51353 | 5054 | inactive
Nct (GeneID 42964) | DRSC16172 | 80131 | 5164 | inactive
TTLL12 (GeneID 35732) | DRSC06555 | 1.44e5 | 4856 | inactive
Strn-Mlck (GeneID 36753) | DRSC05032 | 71303 | 3402 | inactive
Strn-Mlck (GeneID 36753) | DRSC05598 | 1.57e5 | 7253 | inactive
Strn-Mlck (GeneID 36753) | DRSC07471 | 1.54e5 | 5009 | inactive
sni (GeneID 31761) | DRSC17770 | 8050 | 896 | inactive
Mpcp2 (GeneID 39587) | DRSC11226 | 1.73e5 | 8335 | inactive
CG15446 (GeneID 33088) | DRSC20518 | 1.31e5 | 6963 | inactive
Elp6 (GeneID 41641) | DRSC16571 | 74940 | 3350 | inactive
Nmt (GeneID 38909) | DRSC11236 | 83384 | 3561 | inactive
CG31278 (GeneID 41282) | DRSC16051 | 1.34e5 | 6235 | inactive
Act88F (GeneID 41885) | DRSC14105 | 91594 | 5996 | inactive
Boh2 (GeneID 34559) | DRSC02777 | 1.52e5 | 5046 | inactive
stck (GeneID 40999) | DRSC17070 | 1.32e5 | 6304 | inactive
CG10051 (GeneID 37222) | DRSC05959 | 1.60e5 | 5677 | inactive
Sin3A (GeneID 36382) | DRSC07552 | 1619 | 212 | inactive
Or71a (GeneID 39641) | DRSC11244 | 1.67e5 | 9023 | inactive
ncm (GeneID 35099) | DRSC02179 | 63330 | 4266 | inactive
ninaE (GeneID 42367) | DRSC17014 | 1.47e5 | 7208 | inactive
LBR (GeneID 37482) | DRSC04298 | 91922 | 3281 | inactive
defl (GeneID 39141) | DRSC10300 | 1.04e5 | 3338 | inactive
cyr (GeneID 31733) | DRSC18017 | 1.12e5 | 5100 | inactive
cyr (GeneID 31733) | DRSC18018 | 1.07e5 | 4991 | inactive
cyr (GeneID 31733) | DRSC18021 | 1.04e5 | 5734 | inactive
oxt (GeneID 38288) | DRSC08522 | 68460 | 3301 | inactive
Prosbeta3 (GeneID 41079) | DRSC16801 | 46163 | 3368 | inactive
CG31437 (GeneID 318735) | DRSC13711 | 79169 | 2283 | inactive
Prdm13 (GeneID 38713) | DRSC09970 | 1.04e5 | 3956 | inactive
Rcd5 (GeneID 38478) | DRSC08180 | 89858 | 3835 | inactive
mthl9 (GeneID 38056) | DRSC08506 | 99123 | 3936 | inactive
CG42397 (GeneID 8673976) | DRSC09147 | 1.32e5 | 5108 | inactive
Tssk (GeneID 42233) | DRSC14784 | 1.28e5 | 7689 | inactive
Dab (GeneID 39866) | DRSC11140 | 1.71e5 | 8411 | inactive
Tmx3 (GeneID 39775) | DRSC10471 | 73337 | 3010 | inactive
SMSr (GeneID 38823) | DRSC10998 | 60964 | 3170 | inactive
SMSr (GeneID 38823) | DRSC10999 | 96186 | 3892 | inactive
CG1571 (GeneID 31725) | DRSC18068 | 1.49e5 | 7393 | inactive
CG34406 (retired record) (GeneID 33536) | DRSC00523 | 88375 | 4118 | inactive
CG34406 (retired record) (GeneID 33536) | DRSC00606 | 1.68e5 | 5739 | inactive
eIF4G1 (GeneID 43839) | DRSC17218 | 2994 | 952 | inactive
CG31213 (GeneID 42382) | DRSC14312 | 1.26e5 | 7597 | inactive
CG31213 (GeneID 42382) | DRSC15647 | 1.28e5 | 6120 | inactive
SIFa (GeneID 3346202) | DRSC04480 | 1.12e5 | 4609 | inactive
CG12546 + CG14452 | DRSC11709 | 94979 | 6540 | inactive
CG32773 (retired record) (GeneID 318204) | DRSC17330 | 69894 | 2335 | inactive
Vps13 (GeneID 35693) | DRSC06817 | 1.44e5 | 4521 | inactive
Mdr50 (GeneID 36582) | DRSC07467 | 80852 | 3835 | inactive
Gyc76C + CG42637 | DRSC11180 | 78275 | 3153 | inactive
CG30431 (GeneID 35549) | DRSC04902 | 78000 | 3734 | inactive
CG30431 (GeneID 35549) | DRSC04904 | 1.05e5 | 4329 | inactive
CG6015 (GeneID 42593) | DRSC15948 | 60834 | 4486 | inactive
KaiR1D (GeneID 42473) | DRSC15516 | 1.41e5 | 7394 | inactive
CG7126 (GeneID 42202) | DRSC16201 | 1.33e5 | 7531 | inactive
CG46491 (GeneID 36929) | DRSC06565 | 71182 | 3345 | inactive
CG46491 (GeneID 36929) | DRSC06566 | 1.38e5 | 5232 | inactive
Nipped-A (GeneID 35483) | DRSC04882 | 98726 | 3946 | inactive
Nipped-A (GeneID 35483) | DRSC04883 | 1.01e5 | 4717 | inactive
Nipped-A (GeneID 35483) | DRSC04884 | 1.07e5 | 4238 | inactive
Nipped-A (GeneID 35483) | DRSC07738 | 90533 | 4546 | inactive
Wdr82 (GeneID 34153) | DRSC02595 | 90129 | 3328 | inactive
CG12204 (GeneID 32937) | DRSC19442 | 1.55e5 | 6341 | inactive
DNAlig1 (GeneID 37791) | DRSC04518 | 79025 | 3887 | inactive
CG4115 (GeneID 41499) | DRSC15545 | 1.91e5 | 6273 | inactive
dila (GeneID 36010) | DRSC06607 | 1.26e5 | 4610 | inactive
PDCD-5 (GeneID 39776) | DRSC09955 | 1.69e5 | 9154 | inactive
CG34353 (GeneID 5740590) | DRSC14493 | 1.14e5 | 5986 | inactive
CG34353 (GeneID 5740590) | DRSC14517 | 1.22e5 | 6459 | inactive
CG34353 (GeneID 5740590) | DRSC14563 | 1.19e5 | 6617 | inactive
CG34353 (GeneID 5740590) | DRSC15837 | 1.07e5 | 5667 | inactive
CG6553 (GeneID 36537) | DRSC07002 | 93336 | 3712 | inactive
wun (GeneID 35966) | DRSC07719 | 3058 | 202 | inactive

Targets listed so far whose gene name starts with N or n (9):
Gene | amplicon | E2F firefly, rep 1 | Renilla normaliser, rep 1 | activity call
Nipsnap (GeneID 32573) | DRSC20169 | 7718 | 856 | inactive
Nct (GeneID 42964) | DRSC16172 | 80131 | 5164 | inactive
Nmt (GeneID 38909) | DRSC11236 | 83384 | 3561 | inactive
ncm (GeneID 35099) | DRSC02179 | 63330 | 4266 | inactive
ninaE (GeneID 42367) | DRSC17014 | 1.47e5 | 7208 | inactive
Nipped-A (GeneID 35483) | DRSC04882 | 98726 | 3946 | inactive
Nipped-A (GeneID 35483) | DRSC04883 | 1.01e5 | 4717 | inactive
Nipped-A (GeneID 35483) | DRSC04884 | 1.07e5 | 4238 | inactive
Nipped-A (GeneID 35483) | DRSC07738 | 90533 | 4546 | inactive
